Data as given in PubChem BioAssay AID743121 (NCATS, 2013).
Assay: 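Partners whose loss is lethal together with topoisomerase I blockade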 (primary screen). Cells: MDA-MB-231 cells, a human breast cancer line. Knock-down reagent: single siRNA against human genes, 20 nM siRNA (0.8 pmol per well). Time to read-out: 120 h (drug added 48 h after transfection, read 72 h later). Treatment: camptothecin 20 nM (about EC30) for 72 h; vehicle 0.1% DMSO in parallel plates. Measurement: 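Cell viability by ATP luminescence (CellTiter-Glo) as % of non-targeting siRNA wells, and the log2 ratio of viability without drug over viability with camptothecin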. Direction: log2 vehicle/camptothecin viability: higher = stronger sensitisation to camptothecin. Call rule: 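Active genes have an RSA gene-level p-value below 0.001, computed from the ratios of their separate siRNAs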.
Shown is one part, drawn at random, of about 26,000 deposited reagents. Over the whole deposit, 167 (0.63%) were called active. 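Calls are per gene from RSA p-values that are not deposited; an individual active-marked siRNA can sensitise only weakly.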 Entries without a mark were called inactive. Not all columns of the deposit are shown. No sequences are given here.

GCG [SID164366221] | log2 vehicle/camptothecin viability: 0.333
GCG [SID164366223] | log2 vehicle/camptothecin viability: -0.11
GCG [SID164366225] | log2 vehicle/camptothecin viability: -0.396
GCG [SID164366226] | log2 vehicle/camptothecin viability: -0.069
OR2L3 [SID164679969] | log2 vehicle/camptothecin viability: -0.00423
OR2L3 [SID164679970] | log2 vehicle/camptothecin viability: 0.188
OR2L3 [SID164679972] | log2 vehicle/camptothecin viability: -0.0811
OR2L3 [SID164679973] | log2 vehicle/camptothecin viability: 0.0283
KIF2C [SID164414863] | log2 vehicle/camptothecin viability: 0.194
KIF2C [SID164414867] | log2 vehicle/camptothecin viability: -0.0688
KIF2C [SID164414868] | log2 vehicle/camptothecin viability: -0.437
SSR3 [SID164389900] | log2 vehicle/camptothecin viability: -0.0546
SSR3 [SID164389902] | log2 vehicle/camptothecin viability: 0.177
SSR3 [SID164389905] | log2 vehicle/camptothecin viability: 0.0526
SSR3 [SID164389906] | log2 vehicle/camptothecin viability: 0.0389
CELF1 [SID164412657] | log2 vehicle/camptothecin viability: -0.446
CELF1 [SID164412661] | log2 vehicle/camptothecin viability: 0.0827
CELF1 [SID164412662] | log2 vehicle/camptothecin viability: -0.224
CELF1 [SID164412664] | log2 vehicle/camptothecin viability: -0.112
MRC1 [SID164376076] | log2 vehicle/camptothecin viability: -0.378
MRC1 [SID164376081] | log2 vehicle/camptothecin viability: -0.329
MRC1 [SID164376084] | log2 vehicle/camptothecin viability: -0.0199
HCRTR1 [SID164368681] | log2 vehicle/camptothecin viability: 0.11
HCRTR1 [SID164368682] | log2 vehicle/camptothecin viability: -0.105
HCRTR1 [SID164368684] | log2 vehicle/camptothecin viability: -0.0237

Next part; the last 4 above are carried over.
MRC1 [SID164376084] | log2 vehicle/camptothecin viability: -0.0199
HCRTR1 [SID164368681] | log2 vehicle/camptothecin viability: 0.11
HCRTR1 [SID164368682] | log2 vehicle/camptothecin viability: -0.105
HCRTR1 [SID164368684] | log2 vehicle/camptothecin viability: -0.0237
DERA [SID164471627] | log2 vehicle/camptothecin viability: 0.0279
DERA [SID164471628] | log2 vehicle/camptothecin viability: 0.137
DERA [SID164471629] | log2 vehicle/camptothecin viability: 0.721
DERA [SID164471630] | log2 vehicle/camptothecin viability: -0.0205
PML [SID164381360] | log2 vehicle/camptothecin viability: -0.143
PML [SID164381363] | log2 vehicle/camptothecin viability: -0.647
PML [SID164381364] | log2 vehicle/camptothecin viability: 0.181
WASF1 [SID164400864] | log2 vehicle/camptothecin viability: -0.622
WASF1 [SID164400865] | log2 vehicle/camptothecin viability: -0.248
WASF1 [SID164400870] | log2 vehicle/camptothecin viability: -0.116
WASF1 [SID164400871] | log2 vehicle/camptothecin viability: -0.159
CYP1A2 [SID164360671] | log2 vehicle/camptothecin viability: -0.0641
CYP1A2 [SID164360672] | log2 vehicle/camptothecin viability: -0.0252
CYP1A2 [SID164360673] | log2 vehicle/camptothecin viability: -0.32
CYP1A2 [SID164360674] | log2 vehicle/camptothecin viability: -0.309
SMN1 [SID164388892] | log2 vehicle/camptothecin viability: -0.289
SMN1 [SID164388896] | log2 vehicle/camptothecin viability: -0.0183
SMN1 [SID164388901] | log2 vehicle/camptothecin viability: -0.498
SMN1 [SID174315938] | log2 vehicle/camptothecin viability: -0.239
UXT [SID164397435] | log2 vehicle/camptothecin viability: -0.251
UXT [SID164397437] | log2 vehicle/camptothecin viability: -0.092
UXT [SID164397438] | log2 vehicle/camptothecin viability: -0.0357
